# Library compounds against nucleic acid targets

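Each compound is printed as two spots on a slide made to bind it covalently, so it has no test concentration; the read-out is fluorescence of the bound, labelled oligonucleotide. The data file lists only calls. An earlier report of the laboratory on the PreQ1, TPP and SAM-II riboswitches (doi:10.1038/s41467-019-09493-3) used 1 µM RNA for 2 h and required a mean Z-score above 3 (spot signal-to-noise against the whole library), a score well above that on a control array, and duplicate spots agreeing (coefficient of variation under 100); it then also set aside compounds that hit other targets, which this list keeps. The cut-offs behind this list may differ. The calls come from the array alone, and fixing a compound to the slide can hide its binding.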 A compound is marked active if it was called a hit and inactive if it was screened but was not. Compounds were drawn at random from those tested, without regard to their results. A dash means that no call is listed here.

Targets, with sequences 5′ to 3′:
PreQ1: PreQ1 riboswitch RNA pseudoknot, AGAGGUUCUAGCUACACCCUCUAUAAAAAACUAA. From B. subtilis. Hit rate about 0.7% of about 24,000 compounds.
SAM-II: SAM-II riboswitch RNA pseudoknot, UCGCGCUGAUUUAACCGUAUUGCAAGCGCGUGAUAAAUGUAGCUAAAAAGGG. Hit rate about 1% of about 21,000 compounds.
TPP: TPP riboswitch RNA three-way junction, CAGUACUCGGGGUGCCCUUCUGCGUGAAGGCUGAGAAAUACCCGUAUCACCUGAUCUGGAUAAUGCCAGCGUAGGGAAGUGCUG. Hit rate about 0.7% of about 24,000 compounds.

| # | compound | PreQ1 | SAM-II | TPP |
|---|---|---|---|---|
| 1 | `CCCCCC1C(O)CCC1CC(=O)NN` (stereo not drawn) | inactive | inactive | inactive |
| 2 | `O=C1C2C3C=CC(C3)C2C(=O)N1CCCO` (stereo not drawn) | inactive | inactive | inactive |
| 3 | `COCCC1(C(=O)O)CCCN(C(=O)c2cccc3c2NCCC3)C1` (stereo not drawn) | inactive | inactive | inactive |
| 4 | `CCN(CCNc1nc2c(c(=O)[nH]1)CCNC2)c1cccc(C)c1` | inactive | inactive | inactive |
| 5 | `Cc1cccc(N2CC(NC(=O)Cc3c(C)nc(N)nc3C)CC2=O)c1` (stereo not drawn) | inactive | inactive | inactive |
| 6 | `COc1ccc(C2C=C(Nc3ccc(C)cc3)C(=O)N2c2ccc(C)cc2)cc1` (stereo not drawn) | inactive | inactive | inactive |
| 7 | `COc1ccc(-c2cc3nccn3c(Nc3ncccc3C(N)=O)n2)cc1OC` | inactive | inactive | inactive |
| 8 | `Cc1c2c(cc3c4c(c(=O)oc13)CCC4)C(O)CC1(CCCC(C)C1)O2` (stereo not drawn) | inactive | inactive | inactive |
| 9 | `O=S1(=O)C=CC(NCc2csc(C34CC5CC(CC(C5)C3)C4)n2)C1` (stereo not drawn) | inactive | inactive | inactive |
| 10 | `Nc1cc(C(F)(F)F)ccc1C(=O)O` | inactive | inactive | inactive |
| 11 | `COc1ccc(CNCc2ccc(C(F)(F)F)cc2)cc1OC` | inactive | inactive | inactive |
| 12 | `CCC(C)[C@H](N)c1nnc(SCC(=O)c2ccc(Cl)cc2)o1` (stereo partly drawn) | inactive | inactive | inactive |
| 13 | `Cc1cc(C)n(CCNC2CCC3(CCNCC3)CC2)c(=O)n1` | inactive | inactive | inactive |
| 14 | `CO[C@H]1CN(C(=O)c2ccccc2-c2nc(-c3ccccc3)no2)CC[C@H]1N` | inactive | inactive | inactive |
| 15 | `Cc1ccc(-c2csc(NC3OC(=O)c4ccccc43)n2)cc1C` (stereo not drawn) | inactive | inactive | inactive |
| 16 | `COc1cccc(-c2nsc(C(=O)O)c2N)c1` | inactive | inactive | inactive |
| 17 | `Cc1ccccc1OCC(O)Cn1cnc2ccccc21` (stereo not drawn) | inactive | inactive | inactive |
| 18 | `COC(=O)C1=C(N)OC2=C(C(=O)CC(C)(C)C2)C1c1cc(OC)ccc1OC` (stereo not drawn) | inactive | inactive | inactive |
| 19 | `Cc1cc(NCc2ccccn2)n2ncc(-c3ccc(F)cc3)c2n1` | inactive | - | inactive |
| 20 | `Cc1cc(Nc2ccc(F)cc2)n2ncc(-c3ccccc3)c2n1` | inactive | - | inactive |
| 21 | `CCc1ccc(S(=O)(=O)c2nnn3c2nc(N)c2cc(Cl)ccc23)cc1` | inactive | inactive | inactive |
| 22 | `CCOC(=O)c1sc2nc(C)nc(Nc3cc(Cl)ccc3OC)c2c1C` | inactive | inactive | inactive |
| 23 | `Cc1cc(Nc2cc(CN3CCOCC3)c3nc(C)c(Cc4ccc(Cl)cc4F)n3n2)n[nH]1` | inactive | inactive | inactive |
| 24 | `COC(=O)c1cnc(Nc2ccc(Cl)cc2OC)c2ccccc12` | inactive | inactive | inactive |
| 25 | `COc1cccc(CC(C)NCCc2nnc(N)s2)c1` (stereo not drawn) | inactive | inactive | inactive |
| 26 | `NC(=O)CN1CCN(C(=O)c2cccc3c2OCCO3)CC(O)C1` (stereo not drawn) | inactive | inactive | inactive |
| 27 | `CC1(C)Cc2nc3sc4c(NCCc5ccccc5)ncnc4c3cc2CO1` | inactive | inactive | inactive |
| 28 | `COC(=O)CCCNc1cc(C)nc2nc(-c3ccc(OC)cc3)nn12` | inactive | - | inactive |
| 29 | `Cn1c(=O)[nH]c(=O)c2c1nc(NCCCO)n2CCO` | inactive | inactive | inactive |
| 30 | `COc1ccc(-c2cc(=O)c3c(O)cc(O[C@@H]4O[C@H](CO[C@@H]5O[C@@H](C)[C@H](O)[C@@H](O)[C@@H]5O)[C@@H](O)[C@H](O)[C@@H]4O)cc3o2)cc1O` | inactive | inactive | inactive |
| 31 | `c1cncc(NCCCNC2CCC3(CCNCC3)CC2)c1` | inactive | inactive | inactive |
| 32 | `CCOC(=O)c1ccccc1Nc1nc(C)nc2c1CCC2` | inactive | - | inactive |
| 33 | `O=C(NCCO)c1cc2n(n1)CCN(C(=O)c1nc3c(s1)CCCC3)C2` | inactive | inactive | inactive |
| 34 | `CC[n+]1cn(CC(O)COCc2ccccc2)c2ccccc21` (stereo not drawn) | inactive | inactive | inactive |
| 35 | `COc1ccc(C(=O)CCC(=O)N2CCC(Cc3cccc(CO)c3)C2)cc1` (stereo not drawn) | inactive | inactive | inactive |
| 36 | `COc1cc(C(=O)N2CCC3(CC2)Nc2ccccc2NC3=O)ccn1` | inactive | inactive | inactive |
| 37 | `CCc1cc(N2CCC(N[C@@H]3c4ccccc4C[C@@H]3O)CC2)nc(N(C)C)n1` | inactive | inactive | inactive |
| 38 | `Cc1ccc(-c2nn3c(NCc4cccnc4)cc(C)nc3c2C)cc1` | inactive | - | inactive |
| 39 | `Nc1nc(NC2CCN(CC3CCCO3)CC2)cc(N2CCOCC2)n1` (stereo not drawn) | inactive | inactive | inactive |
| 40 | `C=C(C)Cn1c(NCCC)nc2c1c(=O)n(C)c(=O)n2C` | inactive | inactive | inactive |

2 of the entries, repeated:

compound,PreQ1,SAM-II,TPP
COC(=O)CCCNc1cc(C)nc2nc(-c3ccc(OC)cc3)nn12,inactive,-,inactive
CCc1cc(N2CCC(N[C@@H]3c4ccccc4C[C@@H]3O)CC2)nc(N(C)C)n1,inactive,inactive,inactive

Data from the ROBIN nucleic acid binder screens, doi:10.1002/anie.202211358.